Screening data, single-dose tests

The values are deposited in ChEMBL (CHEMBL3988442, “University of Dundee, Small-Polar-MMV Screening Library” (2021)).

Mtb cholesterol medium: 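Whole-cell growth test on Mycobacterium tuberculosis, read after 4 days in a medium based on cholesterol and the lipid DPPC; the read-out is not stated. Compounds at 50 µM. Higher reads as more growth inhibition (inferred: compounds with an IC50 in retests scored well above the rest). Of about 69,000 compounds tested this way, about 370 (0.54%) reached 50% or more in at least one test.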
Mtb glucose medium: 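Growth of Mycobacterium tuberculosis over 3 days (7H9 medium with glucose and tyloxapol); the read-out is not stated. Tested at 50 µM. Direction is inferred from retests: higher values go with more growth inhibition. Size under these conditions: about 69,000 compounds, about 760 of them at 50% or above in at least one test.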

Values are the deposited “Percent Effect”, in %.
How 0% and 100% were set is not recorded. Most values in the screen are low, and negative values occur.
This is an unselected part of the compounds tested.
Two or more numbers in one place are separate tests of the same structure; such repeats can differ widely.

compound	Mtb cholesterol medium	Mtb glucose medium
COc1cccc(CC2CN(C3CCN(C(C)=O)CC3)CCO2)c1 (centres unmarked)	-21.09%	-10.82%
COCCN(Cc1ccccc1Cl)c1nc(CCN)nc2ccccc12	7.764%	43.18%
Cc1ncsc1C(=O)NC1CCN(c2ncccc2C#N)CC1	4.453%	4.067% and 4.724%
COc1ccc(F)cc1CSCC(=O)N(C)CCC#N	-12.98%	10.49%
O=S1(=O)NC(C2CCCN(S(=O)(=O)N3CCCC3)C2)=Nc2ccccc21 (centres unmarked)	-19.66% and -6.546%	-8.51%
COc1ccc(C[C@@H]2CC[C@H](CN(C)C3CCN(C)CC3)O2)cc1	-18.8%	14.41%
NC(=O)C1CCN(Cc2ccc(S(=O)(=O)N3CCCC3)o2)CC1	-3.566%	-13.51% and 110%
N#Cc1c(C2CC2)cc(-c2ccc(F)c(F)c2)nc1N	-4.041%	15.78%
[H][C@@]12CC[C@H](Oc3ccccc3Cl)[C@]1([H])CN(C(=O)Cn1ccnc1)C2	-8.101%	3.551%
Cc1ccc(F)c(C(=O)N2C[C@@H](C(=O)O)[C@H](c3ccccc3)C2)c1Cl	-5.894%	10.2%
CCn1c(CN2CCCC(Cn3cncn3)C2)nc2c(F)cccc21 (centres unmarked)	11.68%	5.39% and 7.364%
CC1=Nc2c(c(=O)[nH]n2C2CCOCC2)C(c2cccc(Br)c2)S1 (centres unmarked)	-0.02078%	-1.754%
O=C(O)C(F)(F)F.[H][C@@]12CCN(c3nnc(C)s3)C[C@]1([H])O[C@H](C(=O)NC1CCCC1)C2	-8.901%	6.05%
Cn1nc2c(cc1=O)CN(Cc1nc3ccccc3c(=O)[nH]1)CC2	5.917%	4.011%
CCc1nsc(NC2CC(=O)N(C3CC3)C2)n1 (centres unmarked)	-25.81%	-50.68%
O=C(Cc1ccc(F)cc1)NCc1ccc(C(=O)O)o1	-2.791%	15.04%
CC(Cn1cncc1-c1cnn(Cc2ccccc2)c1)N1CCCCC1.Cl (centres unmarked)	-19.43% and -18.23%	-19.96%
CN(C)c1cc(CNC(=O)c2n[nH]c(=O)c3ccccc23)ccn1	-9.31%	2.123%
CC(NC(=O)NCC1(c2ccc(F)cc2)CC1)c1nncn1C (centres unmarked)	-3.118%	-9.069%
CCN1CC(C(=O)NCCCc2nc(C)c(C)s2)CC1=O (centres unmarked)	-12.43%	-6.546%
Cc1cc(C(=O)N2CCCCC2)ccc1NS(C)(=O)=O	-9.449% and -2.81%	4.978%
CCc1nc(NCCCOC)c2c(n1)c(C)nn2C	4.337%	22.36%
CCc1nc2n(n1)CC(NCC(=O)Nc1cc(C)nn1C)CC2 (centres unmarked)	-9.384%	-50.04% and -2.058%
CC[C@@H]1N(CC2CC2)CCC[C@]12CCC(=O)N2CCOC.O=C(O)C(F)(F)F	8.226%	6.355%
Cc1ccc(N(C)S(=O)(=O)c2cc(C(=O)O)cs2)cc1	-27.54%	-0.461%
CSCC(=O)N1CCCC1c1noc(C2CC2)n1 (centres unmarked)	14.36%	19.51%
Cc1cnc2[nH]c(C(F)(F)F)c(CN3CCCC(CO)C3)c2c1 (centres unmarked)	-10.7%	5.047%
CNC(=O)CN1CCOCC2(C1)CN(C(=O)C(C)C)CCO2.O=C(O)C(F)(F)F (centres unmarked)	-17.15%	-8.473%
O=C(O)C(F)(F)F.[H][C@]12CCC[C@@]1(COCc1ccccn1)CN(C(=O)CS(C)(=O)=O)C2	4.114%	13.32%
Cc1nc(CN2CCCN(C(=O)c3ccccn3)CC2)oc1C	-1.528%	-17.5%
Cc1nc(C)n(CC2CN(Cc3cccnc3)Cc3nccn3C2)n1.O=C(O)C(F)(F)F.O=C(O)C(F)(F)F (centres unmarked)	-8.068% and -0.8493%	-3.298% and -20.98%
CC(c1nc(C2CC2)no1)N1CCN(Cc2noc(C3CC3)n2)CC1 (centres unmarked)	-11.41%	-16.87%
O=c1[nH]c2c(c(=O)n1C1CCCCC1)CCC2Nc1ccc(Cl)cc1 (centres unmarked)	-20.48%	-5.762%
C[C@@H]1CN(C(=O)C2CCS(=O)(=O)CC2)C[C@]1(C)O	0.5765%	-1.359% and -14.17%
O=C(NC1CCCc2c1[nH]c1ccc(F)cc21)c1n[nH]c2c1CCCC2 (centres unmarked)	-28.84%	-46.11%
CSCc1ccc(N2CCC(C(O)Cc3ccccc3)CC2)nc1 (centres unmarked)	-55.16%	-27.01%
O=C1CCC2(CCCN(CCn3cc(Cl)cn3)C2)CN1C1CCCC1 (centres unmarked)	-6.428%	12.29%
CCOc1ccc(N(C)Cc2nc(C)c(C)o2)cc1	-34.24%	0.5058%
O=C(c1cnc(-c2cccnc2)nc1)N1CCC(c2ccncc2)CC1	-1.669%	-2.974%
COCC1CN(c2ncccn2)Cc2cnn(CC3CC3)c21 (centres unmarked)	-6.82%	-2.784%
CC(C)S(=O)(=O)NC(=O)CC(c1ccccc1)C(F)(F)F (centres unmarked)	-1.716%	3.505%
[H][C@@]12CCC(=O)N(CC(C)C)[C@]1([H])CCN(C(=O)c1ncc[nH]1)C2	-16.73% and -12.1%	2.725%
Cl.Cl.c1ccc(-c2cnc3n2CCNC32CCNCC2)cc1	-9.93%	-2.027% and -43.69%
O=C(Cc1cccc(F)c1)NCCNCc1cccnc1	-1.264%	-1.96%
Cc1cccc(-n2c(C)cc(=O)[nH]c2=O)c1C	-11.18%	-9.165%
CCCc1noc(CN2CCCCC2Cn2cncn2)n1 (centres unmarked)	3.265%	14.14%
O=C(O)C(F)(F)F.c1ccn(Cc2noc3c2CN(Cc2ccsc2)CC3)c1	1.933%	-4.936% and 11.46%
O=C(CNc1nc(C(F)(F)F)cs1)N1CCc2sccc2C1	12.58%	6.855% and 17.92%
CCC(C)Oc1ccc(CNCCNS(C)(=O)=O)cc1Cl (centres unmarked)	75.46%	-10.25%
CC(C)COCCC(=O)Nc1c(-c2ccc(F)cc2)ncn1C	-21.97%	-13.7% and 2.836%
COc1cccc(-c2cc(CN)ccc2F)c1F	7.51% and 27.12%	11.35% and 26.23%
C[C@@H]1CN(Cc2c[nH]c(CC3CCCC3)n2)CC[C@]1(C)O	7.614%	30.05%
CN1CCN(c2ccc3ccc(C(=O)N4CCCO4)cn23)CC1.O=C(O)C(F)(F)F	-6.197%	-11.59% and -3.893%
CCN(C(=O)CCc1ccccc1)C1CC(=O)NC1=O (centres unmarked)	-14.38%	-29.07%
COc1ncccc1C(=O)N1CCN(C(=O)Cc2ccccn2)CC1	1.995%	-14.24%
O=C(NCCCN1CCCC1=O)c1nc(-c2ccc3cc[nH]c3c2)no1	-9.036%	-9.792%
O=C(O)C(F)(F)F.O=C(O)C(F)(F)F.[H][C@@]12CCN(CC3CCOCC3)[C@@]1([H])CCN2Cc1c(C)noc1C	-10.73%	-14.93%
CCN(CC)CCNC(=O)C(C)OCC(F)(F)F (centres unmarked)	-17.22%	-8.232%
[H][C@]12CN(CC3CC3)C(=O)[C@@]1([H])CN(c1cnccn1)C2	-22.96%	-7.651%
CCOCC1CN(C(=O)c2ccco2)Cc2cnn(CC)c21 (centres unmarked)	-22.05%	-12.33%
N#Cc1cccnc1N1CCC(C2CCCCCN2C(=O)C2CC2)CC1 (centres unmarked)	9.062%	13%
Cl.Clc1ccccc1CN1CCc2nc(C3CCNCC3)ncc2C1	23.42%	65.83%
Cn1cc(C2CCCN2C(=O)CCCc2nc3ccccc3[nH]2)cn1 (centres unmarked)	0.4746% and 5.745%	16.42%
COCC(=O)N1CCCC1(C(=O)N(C)C)c1cnccn1 (centres unmarked)	-9.498% and -12.29%	1.555%
O=C(CN1CCSC(c2ccccc2)C1)NCc1ccccn1 (centres unmarked)	-9.44%	2.136%
CCOC1CC2(CCN(Cc3nccn3C)CC2)C1.O=C(O)C(F)(F)F	-8.138%	3.535% and -0.6548%
Cc1n[nH]c(C)c1CCC(=O)NCC1CCCN(C2CCCC2)C1 (centres unmarked)	-8.007%	-24.49%
CC(NC(=O)NCCCn1cncn1)c1ccc(F)cc1 (centres unmarked)	-13.85%	-23.48%
CCC(CC)NC(=O)Cn1nc(C)nc1-c1ccccc1	6.537%	10.9%
CCN(CCOC)C(=O)CCc1scnc1C	0.413%	7.551%
CC(c1cc(F)ccc1F)N1CCN(Cc2nccn2C)CC1 (centres unmarked)	4.581%	25.04%
CN1CC(C(=O)N2CCN(c3cccc(Cl)c3)C(=O)C2)NC1=O (centres unmarked)	-16.09%	-21.85%
OC1(CNCCc2nc3c(s2)CCCC3)CNCCOC1 (centres unmarked)	-3.433% and 3.649%	32.75%
CS(=O)(=O)NC1CCN(C(=O)c2ccc(F)cc2)CC1	0.8717% and -5.69%	-19.88%
CN(Cc1cccnc1N)Cc1cccc2ncccc12	-13.5%	-5.48% and -21.74%
COc1ccc(CNC2CCc3ncnn3C2)cc1OCCCC#N (centres unmarked)	-9.285%	8.01%
CN(C)CCN1CCC2(CCCN(C(=O)C3CCC3)C2)CC1.O=C(O)C(F)(F)F.O=C(O)C(F)(F)F	-13.05%	-8.627% and -21.98%
[H][C@@]12CCN(c3ncccn3)[C@@]1([H])CCN2C(=O)NC1CC1	-1.532%	2.787%
CN(C)Cc1cc(=O)n2c(n1)CN(C(=O)Cc1ccsc1)CCC2.O=C(O)C(F)(F)F	-9.644%	2%
COc1ccc(S(=O)(=O)N2CCOC(C)(C(N)=O)C2)cc1 (centres unmarked)	-1.178% and -0.6929%	-6.227%

Once more, the final 5:

compound,Mtb cholesterol medium,Mtb glucose medium
COc1ccc(CNC2CCc3ncnn3C2)cc1OCCCC#N (centres unmarked),-9.285%,8.01%
CN(C)CCN1CCC2(CCCN(C(=O)C3CCC3)C2)CC1.O=C(O)C(F)(F)F.O=C(O)C(F)(F)F,-13.05%,-8.627% and -21.98%
[H][C@@]12CCN(c3ncccn3)[C@@]1([H])CCN2C(=O)NC1CC1,-1.532%,2.787%
CN(C)Cc1cc(=O)n2c(n1)CN(C(=O)Cc1ccsc1)CCC2.O=C(O)C(F)(F)F,-9.644%,2%
COc1ccc(S(=O)(=O)N2CCOC(C)(C(N)=O)C2)cc1 (centres unmarked),-1.178% and -0.6929%,-6.227%